Laboratory results published in patent publication US7803768B2, “Method for treatment of hyperglycemia in a subject in need thereof” (Kyoto University, priority 2005, dated 2010).

Test system: n0-STZ model
Experiment: n0-STZ model: neonatal streptozotocin-treated rats given rat ghrelin (Example 1)
Format: in vivo, Sprague Dawley rats
Conditions: 100 μg/kg s.c. twice a day, 2nd to 8th day after birth, mean ± SE
Excerpt: Female or male Sprague Dawley rats, purchased from Charles River were, were allowed free access to tap water and a standard pellet rat diet (352 kcal/100 g, CE-2, CLEA). Females were caged with a male for one night, and pregnancy was detected by abdominal palpation 14 days later. Natural birth occurred 22 days after mating. […]
Insulin and pdx-1 were detected immunohistochemically on 3 μm-thick tissue sections using an indirect peroxidase-labeling technique. […] Quantitative evaluations of total β cells area were performed by a computer-assisted image analysis procedure using an Olympus BX 51 microscope connected to a digital camera DP 12 and Mac SCOPE Ver2.6 software (Mitani, Fukui, Japan). β cells area and total pancreatic section area were evaluated for each stained section. A relative volume of β cells was determined by a sterological morphological method, with calculation of the ratio between the areas occupied by immunoreactive cells and those occupied by total pancreatic cells. […]
Realtime PCR was performed as follows. […] The concentration of each mRNA product was quantified using calibration curves expressing the fluorescence intensity against the amount of standardized PCR product. […]

GSS(n-octanoyl)FLSPEHQKAQQRKESKKPPAKLQPR [rat ghrelin]
Pancreas Weight (10-week-old rats): 556 ± 83 mg
Body Weight (21-day-old rats): 36.3 ± 3.9 g
